In paper PMC7925594 one finds binding data, which are given here for two substances.

Amino acid sequences for entries named in this document (tags omitted).
UniProt O88522: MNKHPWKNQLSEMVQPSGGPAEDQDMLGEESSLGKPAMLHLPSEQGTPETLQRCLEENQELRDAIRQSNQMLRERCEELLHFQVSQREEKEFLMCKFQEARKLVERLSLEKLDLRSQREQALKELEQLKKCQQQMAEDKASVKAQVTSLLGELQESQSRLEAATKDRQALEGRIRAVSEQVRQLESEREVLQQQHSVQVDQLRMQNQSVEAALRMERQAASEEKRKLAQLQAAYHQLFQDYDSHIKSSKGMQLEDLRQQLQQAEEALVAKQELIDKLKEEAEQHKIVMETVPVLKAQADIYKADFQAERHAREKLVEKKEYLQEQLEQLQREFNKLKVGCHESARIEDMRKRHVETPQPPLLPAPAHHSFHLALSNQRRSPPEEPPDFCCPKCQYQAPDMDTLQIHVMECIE
UniProt Q9Y6K9: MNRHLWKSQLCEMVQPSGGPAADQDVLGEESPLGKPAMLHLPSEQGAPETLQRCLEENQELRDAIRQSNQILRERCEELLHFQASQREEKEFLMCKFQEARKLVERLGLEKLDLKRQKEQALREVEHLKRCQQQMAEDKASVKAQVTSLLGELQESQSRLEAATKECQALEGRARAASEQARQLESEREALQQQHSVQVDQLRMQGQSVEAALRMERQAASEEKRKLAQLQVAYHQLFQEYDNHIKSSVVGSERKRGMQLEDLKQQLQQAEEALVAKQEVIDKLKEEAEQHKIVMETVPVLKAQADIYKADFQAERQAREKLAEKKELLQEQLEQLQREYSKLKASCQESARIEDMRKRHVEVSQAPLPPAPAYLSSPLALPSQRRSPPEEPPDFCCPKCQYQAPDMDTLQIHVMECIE

These are yes or no findings as the source states them, for the method shown. Binding seen in cells or lysates may run through a third protein. Some entries that bind do so weakly or less than the wild type. For some of these results: Where a sequence is shown, tags or fusion partners need not be part of it.

For experiment [1], the target named is T1, HA-N4BP1 424-aa cleavage product (truncation mutant ending at D424) (not stated (printed residue numbers fit the human protein)) (UniProt O75113).
T1 sequence: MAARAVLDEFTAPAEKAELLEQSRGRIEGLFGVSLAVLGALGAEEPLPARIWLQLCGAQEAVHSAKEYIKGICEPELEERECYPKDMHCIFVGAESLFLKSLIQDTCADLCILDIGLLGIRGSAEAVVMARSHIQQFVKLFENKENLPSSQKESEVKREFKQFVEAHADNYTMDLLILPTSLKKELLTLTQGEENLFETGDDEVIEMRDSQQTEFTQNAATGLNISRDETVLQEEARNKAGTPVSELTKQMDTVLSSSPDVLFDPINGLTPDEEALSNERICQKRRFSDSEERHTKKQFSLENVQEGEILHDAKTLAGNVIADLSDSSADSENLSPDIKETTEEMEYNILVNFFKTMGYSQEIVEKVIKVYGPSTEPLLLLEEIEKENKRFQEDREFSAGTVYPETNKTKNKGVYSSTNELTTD
Briefly: co-IP; HA-N4BP1 or truncation mutants and Flag-NEMO expressed in HEK293T cells; immunoprecipitation with anti-HA, immunoblot with anti-Flag. For orientation: In western blotting, separated proteins are transferred to a membrane and probed.

The target of experiment [2] is T2, HA-N4BP1 490-aa cleavage product (truncation mutant ending at D490) (not stated (printed residue numbers fit the human protein)) (UniProt O75113).
T2 sequence: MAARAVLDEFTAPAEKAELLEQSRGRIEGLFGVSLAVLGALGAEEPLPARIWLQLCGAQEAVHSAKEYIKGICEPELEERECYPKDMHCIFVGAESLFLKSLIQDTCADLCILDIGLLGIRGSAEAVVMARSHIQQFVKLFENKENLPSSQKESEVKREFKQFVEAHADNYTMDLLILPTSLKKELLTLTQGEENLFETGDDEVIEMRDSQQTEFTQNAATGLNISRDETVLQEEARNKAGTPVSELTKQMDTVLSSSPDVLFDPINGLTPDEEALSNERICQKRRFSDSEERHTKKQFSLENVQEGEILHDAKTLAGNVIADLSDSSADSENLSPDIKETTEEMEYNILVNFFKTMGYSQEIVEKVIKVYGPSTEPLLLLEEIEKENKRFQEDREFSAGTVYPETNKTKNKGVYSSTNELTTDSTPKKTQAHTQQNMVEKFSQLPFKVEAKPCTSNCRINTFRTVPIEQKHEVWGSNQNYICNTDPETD
The description is as above.

Experiment [3] has as its target T3, HA-tagged N4BP1 (full-length) (not stated (printed residue numbers fit the human protein)) (UniProt O75113).
T3 sequence: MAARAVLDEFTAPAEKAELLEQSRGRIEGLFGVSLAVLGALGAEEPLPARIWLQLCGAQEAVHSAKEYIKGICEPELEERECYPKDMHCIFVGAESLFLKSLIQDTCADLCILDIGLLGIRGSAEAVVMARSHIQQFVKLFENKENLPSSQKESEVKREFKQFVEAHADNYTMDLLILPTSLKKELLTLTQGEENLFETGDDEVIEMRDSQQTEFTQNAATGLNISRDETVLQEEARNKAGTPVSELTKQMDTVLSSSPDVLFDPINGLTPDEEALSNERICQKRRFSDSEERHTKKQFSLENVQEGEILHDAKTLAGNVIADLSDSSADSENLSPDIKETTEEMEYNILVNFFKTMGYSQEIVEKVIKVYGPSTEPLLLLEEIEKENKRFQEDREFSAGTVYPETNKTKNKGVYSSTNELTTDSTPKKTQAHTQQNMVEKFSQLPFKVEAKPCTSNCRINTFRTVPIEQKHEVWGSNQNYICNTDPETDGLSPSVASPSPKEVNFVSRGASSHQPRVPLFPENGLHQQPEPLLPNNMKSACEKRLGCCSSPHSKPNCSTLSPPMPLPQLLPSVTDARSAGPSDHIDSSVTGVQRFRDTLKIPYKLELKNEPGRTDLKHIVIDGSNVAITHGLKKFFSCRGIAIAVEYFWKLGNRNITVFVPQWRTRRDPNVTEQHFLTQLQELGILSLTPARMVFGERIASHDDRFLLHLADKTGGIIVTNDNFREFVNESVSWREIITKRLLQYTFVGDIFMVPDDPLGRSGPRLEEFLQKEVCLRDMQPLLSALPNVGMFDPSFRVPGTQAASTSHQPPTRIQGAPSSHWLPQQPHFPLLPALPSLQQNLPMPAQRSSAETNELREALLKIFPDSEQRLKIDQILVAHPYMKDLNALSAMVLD
Described as above.

For experiment [4], the target named is NEMO, endogenous in mouse peritoneal macrophages (mouse (endogenous in peritoneal macrophages)) (UniProt O88522). Briefly: cross-linking; wild-type and N4bp1-/- peritoneal macrophages, stimulated with Pam3CSK4 or not, treated with 2 mM disuccinimidyl suberate (DSS) for 10 min before collection; immunoprecipitation with anti-NEMO (rabbit IgG control), immunoblot with anti-NEMO.

As to “Flag-tagged NEMO (from UniProt Q9Y6K9 1-419)”, the binding result in experiment [1], in experiment [2] and in experiment [3] was “binds” in each case.

On to “NEMO, endogenous in mouse peritoneal macrophages (from UniProt O88522 1-412)”, for which the binding result in experiment [4] is “binds”.
